Reference: the supplement of paper PMC11732987, “Enantioselective OTUD7B fragment discovery through chemoproteomics screening and high-throughput optimisation” (Communications Chemistry, 2025)
Some of the results follow. The data scatter; read single values as rough.

Amino acid sequences for entries named in this document (tags omitted). A change or cut given only in a name is not applied to a line headed by its entry. Residues count along the entry.
UniProt Q14738, whole entry, looked up: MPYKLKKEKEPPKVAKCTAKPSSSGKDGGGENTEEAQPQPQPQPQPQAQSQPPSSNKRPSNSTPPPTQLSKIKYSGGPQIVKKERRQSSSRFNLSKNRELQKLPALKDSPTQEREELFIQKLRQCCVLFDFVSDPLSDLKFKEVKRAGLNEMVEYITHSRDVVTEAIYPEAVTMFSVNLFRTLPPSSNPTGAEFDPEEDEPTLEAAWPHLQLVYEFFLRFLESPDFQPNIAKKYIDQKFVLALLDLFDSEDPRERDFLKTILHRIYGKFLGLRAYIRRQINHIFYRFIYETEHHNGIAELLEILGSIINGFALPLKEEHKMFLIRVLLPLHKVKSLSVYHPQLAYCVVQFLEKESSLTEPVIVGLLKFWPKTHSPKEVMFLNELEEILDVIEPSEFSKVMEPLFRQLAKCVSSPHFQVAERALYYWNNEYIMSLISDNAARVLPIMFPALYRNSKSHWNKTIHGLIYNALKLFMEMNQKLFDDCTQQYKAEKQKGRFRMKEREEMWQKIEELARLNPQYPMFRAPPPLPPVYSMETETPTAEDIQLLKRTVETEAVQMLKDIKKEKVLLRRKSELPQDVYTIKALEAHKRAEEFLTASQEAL
UniProt Q5H9R7: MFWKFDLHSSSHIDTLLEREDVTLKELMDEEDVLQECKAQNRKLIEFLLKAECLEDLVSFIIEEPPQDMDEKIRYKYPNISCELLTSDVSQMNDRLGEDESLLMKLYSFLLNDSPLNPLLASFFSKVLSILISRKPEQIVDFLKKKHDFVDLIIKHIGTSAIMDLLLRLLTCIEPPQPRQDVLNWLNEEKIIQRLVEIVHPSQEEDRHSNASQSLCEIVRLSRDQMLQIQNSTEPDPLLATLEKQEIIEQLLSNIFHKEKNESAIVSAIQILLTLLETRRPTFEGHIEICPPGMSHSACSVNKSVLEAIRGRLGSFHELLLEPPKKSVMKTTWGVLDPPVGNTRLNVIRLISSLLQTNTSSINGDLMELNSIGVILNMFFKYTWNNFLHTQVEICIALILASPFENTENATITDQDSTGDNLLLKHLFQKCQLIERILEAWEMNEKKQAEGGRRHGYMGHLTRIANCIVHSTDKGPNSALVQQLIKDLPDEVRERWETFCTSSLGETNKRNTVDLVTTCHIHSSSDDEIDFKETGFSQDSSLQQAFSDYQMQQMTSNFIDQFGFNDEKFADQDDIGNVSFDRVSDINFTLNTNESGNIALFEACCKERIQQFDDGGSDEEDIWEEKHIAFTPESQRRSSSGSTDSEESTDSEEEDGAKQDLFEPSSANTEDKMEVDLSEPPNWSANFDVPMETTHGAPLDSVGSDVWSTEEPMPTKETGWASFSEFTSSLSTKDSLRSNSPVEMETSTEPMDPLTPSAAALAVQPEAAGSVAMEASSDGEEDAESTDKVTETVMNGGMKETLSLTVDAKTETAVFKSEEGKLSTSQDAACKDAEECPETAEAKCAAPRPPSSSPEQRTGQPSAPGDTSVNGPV
UniProt P78527: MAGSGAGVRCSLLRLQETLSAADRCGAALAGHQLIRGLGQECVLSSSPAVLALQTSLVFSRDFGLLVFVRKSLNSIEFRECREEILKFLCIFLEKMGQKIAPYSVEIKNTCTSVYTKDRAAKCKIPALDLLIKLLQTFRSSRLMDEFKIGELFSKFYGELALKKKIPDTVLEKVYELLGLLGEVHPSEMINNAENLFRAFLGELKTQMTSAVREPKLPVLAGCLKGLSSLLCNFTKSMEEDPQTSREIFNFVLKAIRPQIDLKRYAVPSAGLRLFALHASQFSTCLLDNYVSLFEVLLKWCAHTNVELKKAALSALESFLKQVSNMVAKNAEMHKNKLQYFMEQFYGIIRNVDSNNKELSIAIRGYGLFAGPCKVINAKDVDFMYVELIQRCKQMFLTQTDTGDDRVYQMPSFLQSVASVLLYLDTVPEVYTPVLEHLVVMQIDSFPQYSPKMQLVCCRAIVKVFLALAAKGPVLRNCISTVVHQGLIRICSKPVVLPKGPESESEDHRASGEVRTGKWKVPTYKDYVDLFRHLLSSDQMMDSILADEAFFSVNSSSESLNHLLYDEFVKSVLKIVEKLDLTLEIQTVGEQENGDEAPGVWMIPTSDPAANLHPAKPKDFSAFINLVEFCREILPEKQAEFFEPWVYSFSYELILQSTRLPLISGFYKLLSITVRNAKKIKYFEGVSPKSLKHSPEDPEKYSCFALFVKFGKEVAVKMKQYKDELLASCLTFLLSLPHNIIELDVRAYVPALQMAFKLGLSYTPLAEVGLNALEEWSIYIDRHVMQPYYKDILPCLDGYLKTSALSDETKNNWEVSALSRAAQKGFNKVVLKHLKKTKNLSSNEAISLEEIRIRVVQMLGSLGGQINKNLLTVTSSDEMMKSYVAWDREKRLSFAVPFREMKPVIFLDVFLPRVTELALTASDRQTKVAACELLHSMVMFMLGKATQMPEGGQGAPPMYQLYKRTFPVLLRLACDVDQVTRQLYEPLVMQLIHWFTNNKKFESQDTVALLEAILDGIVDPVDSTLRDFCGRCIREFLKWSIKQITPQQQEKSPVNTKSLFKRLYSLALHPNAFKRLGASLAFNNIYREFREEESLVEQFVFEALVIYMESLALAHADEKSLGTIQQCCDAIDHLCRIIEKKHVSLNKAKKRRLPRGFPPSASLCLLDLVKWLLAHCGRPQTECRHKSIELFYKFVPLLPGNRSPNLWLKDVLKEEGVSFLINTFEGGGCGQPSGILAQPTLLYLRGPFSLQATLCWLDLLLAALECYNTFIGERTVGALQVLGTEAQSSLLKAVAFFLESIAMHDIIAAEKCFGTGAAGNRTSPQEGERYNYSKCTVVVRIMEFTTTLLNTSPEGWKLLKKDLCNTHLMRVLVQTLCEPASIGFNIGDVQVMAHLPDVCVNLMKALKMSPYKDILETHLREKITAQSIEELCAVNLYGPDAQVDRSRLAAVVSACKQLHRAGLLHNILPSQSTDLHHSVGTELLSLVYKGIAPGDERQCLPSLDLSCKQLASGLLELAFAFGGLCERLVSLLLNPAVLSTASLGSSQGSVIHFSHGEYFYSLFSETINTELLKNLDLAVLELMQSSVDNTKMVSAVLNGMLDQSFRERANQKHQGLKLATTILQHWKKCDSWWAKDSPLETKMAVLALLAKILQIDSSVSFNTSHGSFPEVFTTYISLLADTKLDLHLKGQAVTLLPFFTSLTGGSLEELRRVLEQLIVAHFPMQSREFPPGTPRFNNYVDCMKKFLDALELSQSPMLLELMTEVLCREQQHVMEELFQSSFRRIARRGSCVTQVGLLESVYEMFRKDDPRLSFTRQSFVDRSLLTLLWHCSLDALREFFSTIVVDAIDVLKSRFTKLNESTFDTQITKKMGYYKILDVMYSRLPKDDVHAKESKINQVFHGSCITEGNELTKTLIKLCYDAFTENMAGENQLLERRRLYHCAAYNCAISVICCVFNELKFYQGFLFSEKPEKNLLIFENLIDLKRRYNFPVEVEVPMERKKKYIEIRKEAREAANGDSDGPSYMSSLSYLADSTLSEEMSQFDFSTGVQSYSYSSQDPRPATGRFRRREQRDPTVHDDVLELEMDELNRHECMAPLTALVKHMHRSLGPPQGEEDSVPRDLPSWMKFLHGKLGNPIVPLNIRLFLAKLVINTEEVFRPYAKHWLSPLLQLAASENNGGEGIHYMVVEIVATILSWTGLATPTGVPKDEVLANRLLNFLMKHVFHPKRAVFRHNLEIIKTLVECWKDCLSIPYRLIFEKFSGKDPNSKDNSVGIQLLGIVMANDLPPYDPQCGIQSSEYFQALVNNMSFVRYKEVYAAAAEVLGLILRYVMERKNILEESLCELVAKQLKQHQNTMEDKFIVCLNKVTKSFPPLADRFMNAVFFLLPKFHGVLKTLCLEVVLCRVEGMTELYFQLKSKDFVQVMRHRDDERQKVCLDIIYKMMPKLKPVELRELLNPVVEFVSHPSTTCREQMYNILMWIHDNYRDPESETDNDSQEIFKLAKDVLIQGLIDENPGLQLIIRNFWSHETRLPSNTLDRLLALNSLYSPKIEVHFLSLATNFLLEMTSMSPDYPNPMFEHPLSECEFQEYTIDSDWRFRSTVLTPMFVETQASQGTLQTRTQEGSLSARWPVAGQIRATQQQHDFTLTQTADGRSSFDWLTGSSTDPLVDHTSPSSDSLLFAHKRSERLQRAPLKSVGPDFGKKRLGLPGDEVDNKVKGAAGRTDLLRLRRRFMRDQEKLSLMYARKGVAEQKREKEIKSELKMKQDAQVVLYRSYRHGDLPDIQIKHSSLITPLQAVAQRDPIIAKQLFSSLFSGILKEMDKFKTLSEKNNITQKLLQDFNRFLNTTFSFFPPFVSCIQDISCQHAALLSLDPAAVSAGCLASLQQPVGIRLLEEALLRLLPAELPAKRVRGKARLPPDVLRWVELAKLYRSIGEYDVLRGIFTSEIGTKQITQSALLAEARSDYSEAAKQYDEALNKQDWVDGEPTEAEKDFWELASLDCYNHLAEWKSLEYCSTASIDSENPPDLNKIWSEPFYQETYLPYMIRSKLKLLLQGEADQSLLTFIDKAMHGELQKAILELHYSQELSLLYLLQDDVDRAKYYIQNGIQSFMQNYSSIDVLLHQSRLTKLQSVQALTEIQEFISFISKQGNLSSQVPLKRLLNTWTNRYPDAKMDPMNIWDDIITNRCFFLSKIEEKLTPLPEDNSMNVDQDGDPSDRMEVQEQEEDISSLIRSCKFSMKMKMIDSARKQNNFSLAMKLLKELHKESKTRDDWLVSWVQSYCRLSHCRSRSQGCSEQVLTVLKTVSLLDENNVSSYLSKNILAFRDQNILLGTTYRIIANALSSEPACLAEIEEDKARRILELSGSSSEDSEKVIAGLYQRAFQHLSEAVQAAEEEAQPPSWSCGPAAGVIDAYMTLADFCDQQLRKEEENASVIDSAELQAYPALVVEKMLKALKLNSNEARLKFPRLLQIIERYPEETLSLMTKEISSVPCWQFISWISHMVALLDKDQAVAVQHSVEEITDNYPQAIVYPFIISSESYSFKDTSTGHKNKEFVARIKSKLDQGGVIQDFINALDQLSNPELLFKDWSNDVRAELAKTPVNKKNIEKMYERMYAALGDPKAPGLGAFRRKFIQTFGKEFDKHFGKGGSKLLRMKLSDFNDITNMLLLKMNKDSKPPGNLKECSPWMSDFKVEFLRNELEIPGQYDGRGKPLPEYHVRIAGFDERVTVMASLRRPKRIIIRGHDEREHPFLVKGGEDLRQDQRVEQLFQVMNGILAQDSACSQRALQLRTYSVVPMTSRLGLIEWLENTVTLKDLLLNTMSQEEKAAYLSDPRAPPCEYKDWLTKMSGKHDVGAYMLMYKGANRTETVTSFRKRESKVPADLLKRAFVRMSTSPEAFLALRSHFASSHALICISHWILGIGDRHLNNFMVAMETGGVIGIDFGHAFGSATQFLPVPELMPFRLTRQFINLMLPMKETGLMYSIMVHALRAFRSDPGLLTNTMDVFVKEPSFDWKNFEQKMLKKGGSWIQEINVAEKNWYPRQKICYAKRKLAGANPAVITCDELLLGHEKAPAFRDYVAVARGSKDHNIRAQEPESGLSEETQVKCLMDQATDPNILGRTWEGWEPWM
UniProt P11908: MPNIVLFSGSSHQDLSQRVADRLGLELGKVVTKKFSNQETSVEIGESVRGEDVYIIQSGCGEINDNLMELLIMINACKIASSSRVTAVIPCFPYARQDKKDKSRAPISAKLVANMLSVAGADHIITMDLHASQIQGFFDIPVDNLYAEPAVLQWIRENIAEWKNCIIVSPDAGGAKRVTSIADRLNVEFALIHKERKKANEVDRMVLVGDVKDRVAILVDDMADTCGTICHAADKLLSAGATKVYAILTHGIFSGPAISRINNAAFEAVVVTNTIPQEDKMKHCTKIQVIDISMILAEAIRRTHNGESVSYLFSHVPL
UniProt P30044: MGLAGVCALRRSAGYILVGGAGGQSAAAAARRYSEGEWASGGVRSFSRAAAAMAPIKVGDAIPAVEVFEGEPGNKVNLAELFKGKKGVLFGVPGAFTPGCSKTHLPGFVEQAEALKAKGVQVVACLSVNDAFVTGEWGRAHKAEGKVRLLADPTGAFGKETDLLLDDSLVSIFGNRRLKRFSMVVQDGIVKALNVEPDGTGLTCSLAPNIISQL
UniProt Q96CD2: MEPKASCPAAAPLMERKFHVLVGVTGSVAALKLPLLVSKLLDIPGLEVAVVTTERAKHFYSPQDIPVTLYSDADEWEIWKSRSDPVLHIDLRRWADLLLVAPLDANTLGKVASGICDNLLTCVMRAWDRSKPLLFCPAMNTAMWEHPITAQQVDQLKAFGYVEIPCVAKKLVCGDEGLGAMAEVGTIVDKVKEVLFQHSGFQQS
UniProt Q86W92, 427-455: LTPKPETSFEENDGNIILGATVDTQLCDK

Compound: ClCC(=O)N[C@@H]1CCCc2ccccc12
Experiment: log2 mean competition ratio of IA-DTB cysteine labelling (DMSO/compound) (log2 ratio); higher = stronger cysteine engagement by compound
Settings: 50 µM; treatment time: 4 h; cell line lysate: HEK293T
Experimental: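 IA-DTB competitive cysteine chemoproteomics in HEK293T RIPA lysate. Lysates were treated with compound 29 or 30 at 50 or 200 µM for 4 h, then IA-DTB (500 µM, 1 h), trypsin-digested, NeutrAvidin-enriched and analysed by diaPASEF. Competition ratio = intensity DMSO / intensity compound (n=4 treated, n=64 DMSO); binding: mean log2 CR ≥ 1 and p ≤ 0.05 plus QC filters. Target is the cysteine site.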

| Target | log2 mean competition ratio |
| --- | --- |
| PPP2R5D C17 (UniProt Q14738) | 0.416 |
| PPIP5K2 C842 | -0.169 |
| POM121 C217 (UniProt Q96HA1) | 0.0121 |
| PPM1E C4 (UniProt Q8WY54) | 0.143 |
| PPP6R3 C467 (UniProt Q5H9R7) | 0.105 |
| PPA1 C254 (UniProt Q15181) | -0.297 |
| POLR2C C107 (UniProt P19387) | -0.234 |
| PRKDC C2342 (UniProt P78527) | -0.17 |
| PRKCD C393 (UniProt Q05655) | -0.37 |
| PPP5C C139 (UniProt P53041) | 0.0689 |
| PRMT6 C221 (UniProt Q96LA8) | 0.482 |
| PRPS2 C91 (UniProt P11908) | -0.0833 |
| POLR2A C154 | 0.2 |
| PPM1G C351 (UniProt O15355) | -0.0868 |
| PRKCZ C503 (UniProt Q05513) | 0.497 |
| PRDX5 C100 (UniProt P30044) | 0.126 |
| PPCDC C166 (UniProt Q96CD2) | 0.0636 |
| PPA2 C302 (UniProt Q9H2U2) | -0.15 |
| PRORP C367 (UniProt O15091) | -0.0495 |
| PPFIBP1 C453 (UniProt Q86W92) | 0.0735 |

Same assay, conditions: 200 µM; treatment time: 4 h; cell line lysate: HEK293T

| Target | log2 mean competition ratio |
| --- | --- |
| PPP2R5D C17 (UniProt Q14738) | -0.176 |
| PPIP5K2 C842 | 0.086 |
| POM121 C217 (UniProt Q96HA1) | 0.266 |
| PPM1E C4 (UniProt Q8WY54) | -0.108 |
| PPP6R3 C467 (UniProt Q5H9R7) | -0.262 |
| PPA1 C254 (UniProt Q15181) | -0.00563 |
| POLR2C C107 (UniProt P19387) | 0.0899 |
| PRKDC C2342 (UniProt P78527) | -0.337 |
| PRKCD C393 (UniProt Q05655) | -0.293 |
| PPP5C C139 (UniProt P53041) | 0.0302 |
| PRMT6 C221 (UniProt Q96LA8) | 0.409 |
| PRPS2 C91 (UniProt P11908) | -0.199 |
| POLR2A C154 | -0.0551 |
| PPM1G C351 (UniProt O15355) | -0.0643 |
| PRKCZ C503 (UniProt Q05513) | 0.113 |
| PRDX5 C100 (UniProt P30044) | -0.561 |
| PPCDC C166 (UniProt Q96CD2) | -0.156 |
| PPA2 C302 (UniProt Q9H2U2) | 0.0336 |
| PRORP C367 (UniProt O15091) | -0.01 |
| PPFIBP1 C453 (UniProt Q86W92) | -0.06 |
